{"source": "PubChem BioAssay AID504786 | Drosophila RNAi Screening Center – 2011", "test": "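Knock-downs reducing HIF reporter induction by the iron chelator DFO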 (primary screen)", "cell system": "Drosophila S2 cells with a stable HIF luciferase reporter", "reagent": "long dsRNA against Drosophila genes, about 0.2 µg dsRNA per well of a 384-well plate", "duration": "three days of knock-down, then 20 h of DFO before reading", "challenge": "desferrioxamine (DFO) at 100 µM, an iron chelator that mimics hypoxia, for 20 h", "measurement": "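Firefly luciferase driven by the mouse ldh-a hypoxia-response element, measured after 20 h of 100 µM DFO; z-scores per plate, higher means more signal lost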", "reading the numbers": "z-score: higher = stronger loss of HIF reporter signal", "note": "The screen tested about 21,000 reagents; below is an unselected part of those that have a named target and a result. 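Primary screen; positive scores mean lost reporter signal, so the sign may be inverted from the usual convention.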 The numbers tell different reagents against one gene apart. Further read-outs or replicates are left out here."}
{"gene": "CG1806", "reagent no.": 1, "z-score, replicate 1": -0.3}
{"gene": "CG6661", "reagent no.": 1, "z-score, replicate 1": -0.2}
{"gene": "asp (abnormal spindle)", "reagent no.": 1, "z-score, replicate 1": -0.2}
{"gene": "Teh4 (tipE homolog 4)", "reagent no.": 1, "z-score, replicate 1": -0.3}
{"gene": "CG8329", "reagent no.": 1, "z-score, replicate 1": -0.4}
{"gene": "CG44433", "reagent no.": 1, "z-score, replicate 1": -0.4}
{"gene": "CG44433", "reagent no.": 2, "z-score, replicate 1": -0.3}
{"gene": "ms(3)76Ba (male sterile (3) 76Ba)", "reagent no.": 1, "z-score, replicate 1": -0.2}
{"gene": "CG12688 (retired record)", "reagent no.": 1, "z-score, replicate 1": -0.3}
{"gene": "CG12688 (retired record)", "reagent no.": 2, "z-score, replicate 1": -0.3}
{"gene": "cad (caudal)", "reagent no.": 1, "z-score, replicate 1": 0.2}
{"gene": "PVRAP (PVR adaptor protein)", "reagent no.": 1, "z-score, replicate 1": 0.3}
{"gene": "PVRAP (PVR adaptor protein)", "reagent no.": 2, "z-score, replicate 1": 0.2}
{"gene": "CG10147", "reagent no.": 1, "z-score, replicate 1": -0.2}
{"gene": "CG3604", "reagent no.": 1, "z-score, replicate 1": -0.1}
{"gene": "CG13908 (retired record)", "reagent no.": 1, "z-score, replicate 1": 0.5}
{"gene": "4E-T (eIF4E-Transporter)", "reagent no.": 1, "z-score, replicate 1": -0.4}
{"gene": "4E-T (eIF4E-Transporter)", "reagent no.": 2, "z-score, replicate 1": -0.5}
{"gene": "NimB1 (Nimrod B1)", "reagent no.": 1, "z-score, replicate 1": -0.3}
{"gene": "kipf (kipferl)", "reagent no.": 1, "z-score, replicate 1": -0.4}
{"gene": "Fie (Fire exit)", "reagent no.": 1, "z-score, replicate 1": 0}
{"gene": "TTLL3A (Tubulin tyrosine ligase-like 3A)", "reagent no.": 1, "z-score, replicate 1": -0.2}
{"gene": "Taf2 (TBP-associated factor 2)", "reagent no.": 1, "z-score, replicate 1": 0.3}

Continued (6 carried over from the part before).
{"gene": "4E-T (eIF4E-Transporter)", "reagent no.": 2, "z-score, replicate 1": -0.5}
{"gene": "NimB1 (Nimrod B1)", "reagent no.": 1, "z-score, replicate 1": -0.3}
{"gene": "kipf (kipferl)", "reagent no.": 1, "z-score, replicate 1": -0.4}
{"gene": "Fie (Fire exit)", "reagent no.": 1, "z-score, replicate 1": 0}
{"gene": "TTLL3A (Tubulin tyrosine ligase-like 3A)", "reagent no.": 1, "z-score, replicate 1": -0.2}
{"gene": "Taf2 (TBP-associated factor 2)", "reagent no.": 1, "z-score, replicate 1": 0.3}
{"gene": "CG3342", "reagent no.": 1, "z-score, replicate 1": -0.4}
{"gene": "osp (outspread)", "reagent no.": 1, "z-score, replicate 1": -0.2}
{"gene": "osp (outspread)", "reagent no.": 2, "z-score, replicate 1": 0.1}
{"gene": "brv1 (brivido-1)", "reagent no.": 1, "z-score, replicate 1": -0.2}
{"gene": "CG7408", "reagent no.": 1, "z-score, replicate 1": -0.2}
{"gene": "Prp4k (Pre-mRNA processing factor 4 kinase)", "reagent no.": 1, "z-score, replicate 1": -0.3}
{"gene": "CG11841", "reagent no.": 1, "z-score, replicate 1": -0.1}
{"gene": "CG1138", "reagent no.": 1, "z-score, replicate 1": -0.4}
{"gene": "Topors (Topoisomerase I-interacting protein)", "reagent no.": 1, "z-score, replicate 1": -0.1}
{"gene": "CG12112", "reagent no.": 1, "z-score, replicate 1": -0.4}
{"gene": "CG7406", "reagent no.": 1, "z-score, replicate 1": 0.2}
{"gene": "Cpr (Cytochrome P450 reductase)", "reagent no.": 1, "z-score, replicate 1": -0.3}
{"gene": "Clp (Clipper)", "reagent no.": 1, "z-score, replicate 1": 3}
{"gene": "CCT7 (Chaperonin containing TCP1 subunit 7)", "reagent no.": 1, "z-score, replicate 1": 0.7}
{"gene": "CG3368", "reagent no.": 1, "z-score, replicate 1": -0.4}
{"gene": "CG17760", "reagent no.": 1, "z-score, replicate 1": -0.4}
{"gene": "mRpL17 (mitochondrial ribosomal protein L17)", "reagent no.": 1, "z-score, replicate 1": 1.2}
{"gene": "l(2)27Cb (retired record)", "reagent no.": 1, "z-score, replicate 1": -0.3}
{"gene": "CG10104", "reagent no.": 1, "z-score, replicate 1": 0}
{"gene": "CG42241 (retired record)", "reagent no.": 1, "z-score, replicate 1": -0.3}
{"gene": "CG34334", "reagent no.": 1, "z-score, replicate 1": 0.5}
{"gene": "NtR", "reagent no.": 1, "z-score, replicate 1": -0.3}
{"gene": "bun (bunched)", "reagent no.": 1, "z-score, replicate 1": 1}
{"gene": "bun (bunched)", "reagent no.": 2, "z-score, replicate 1": 0.3}
{"gene": "bun (bunched)", "reagent no.": 3, "z-score, replicate 1": 1.8}
{"gene": "bora (aurora borealis)", "reagent no.": 1, "z-score, replicate 1": -0.4}
{"gene": "GstD9 (Glutathione S transferase D9)", "reagent no.": 1, "z-score, replicate 1": -0.3}
{"gene": "CG10543", "reagent no.": 1, "z-score, replicate 1": -0.3}
